PubChem BioAssay AID602196 | INSERM | 2012
The whole screen tested about 23,000 reagents; below is a random part of them. In the full data, 455 (2%) were called active. 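Active includes both protection and sensitisation; some change values fall well beyond the stated -50 to +50 range.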 Not all columns of the deposit are shown. Not given: the amount of reagent.

Test: 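Knock-downs that protect lung cancer cells from cisplatin or sensitise them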
Cell system: human A549 lung cancer cells
Reagent: siRNA pair against human genes
Time to read-out: 48 h transfection before cisplatin; time from cisplatin to read-out not stated
Challenge: cisplatin at a dose killing half of control-siRNA cells; exact dose and duration not given
Detection: 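Shift in cisplatin death relative to control siRNA, from -50 (all cells die) to +50 (no cells die); siRNAs harmful on their own scored 0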
Direction: two-siRNA summed score (-2 to +2): higher = both siRNAs protect from cisplatin killing; -2 means both sensitise; mean protection from cisplatin (shift in death): higher = protection from cisplatin killing
Active means: 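siRNAs harmful alone (LDH or WST-1) get 0; others get +1 for less and -1 for more cisplatin killing; genes are active when the two siRNAs give the same sign, summing to ±2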
Calls: active = both siRNAs shift cisplatin killing the same way; inactive = no consistent shift, or siRNA harmful alone

GLYCTK — two-siRNA summed score (-2 to +2): 0; mean protection from cisplatin (shift in death) (%): -1.1; Outcome: inactive
KIN — two-siRNA summed score (-2 to +2): 1; mean protection from cisplatin (shift in death) (%): 1.2; Outcome: inactive
HIP1 — two-siRNA summed score (-2 to +2): -1; mean protection from cisplatin (shift in death) (%): -13.3; Outcome: inactive
C1orf105 — two-siRNA summed score (-2 to +2): 1; mean protection from cisplatin (shift in death) (%): 12.9; Outcome: inactive
SLC46A1 — two-siRNA summed score (-2 to +2): 0; mean protection from cisplatin (shift in death) (%): 0.1; Outcome: inactive
MYCL — two-siRNA summed score (-2 to +2): 0; mean protection from cisplatin (shift in death) (%): 5.3; Outcome: inactive
HGF — two-siRNA summed score (-2 to +2): 0; mean protection from cisplatin (shift in death) (%): 7.7; Outcome: inactive
LINC02893 — two-siRNA summed score (-2 to +2): 0; mean protection from cisplatin (shift in death) (%): 8.3; Outcome: inactive
BPIFA4P — two-siRNA summed score (-2 to +2): 0; mean protection from cisplatin (shift in death) (%): 7.2; Outcome: inactive
GLUL — two-siRNA summed score (-2 to +2): 1; mean protection from cisplatin (shift in death) (%): 3.4; Outcome: inactive
A4GNT — two-siRNA summed score (-2 to +2): 0; mean protection from cisplatin (shift in death) (%): 10.2; Outcome: inactive
CIB1 — two-siRNA summed score (-2 to +2): 1; mean protection from cisplatin (shift in death) (%): 7.8; Outcome: inactive
SYT17 — two-siRNA summed score (-2 to +2): 0; mean protection from cisplatin (shift in death) (%): 7; Outcome: inactive
CAMK2N1 — two-siRNA summed score (-2 to +2): 0; mean protection from cisplatin (shift in death) (%): -4.1; Outcome: inactive
MAX — two-siRNA summed score (-2 to +2): 1; mean protection from cisplatin (shift in death) (%): 20; Outcome: inactive
DEFA3 — two-siRNA summed score (-2 to +2): 0; mean protection from cisplatin (shift in death) (%): 7.4; Outcome: inactive
POM121L9P — two-siRNA summed score (-2 to +2): 0; mean protection from cisplatin (shift in death) (%): -0.2; Outcome: inactive
CYP1A1 — two-siRNA summed score (-2 to +2): 0; mean protection from cisplatin (shift in death) (%): -7.1; Outcome: inactive
KIAA0930 — two-siRNA summed score (-2 to +2): 0; mean protection from cisplatin (shift in death) (%): 6.1; Outcome: inactive
FSTL3 — two-siRNA summed score (-2 to +2): 0; mean protection from cisplatin (shift in death) (%): -6.5; Outcome: inactive
DSC3 — two-siRNA summed score (-2 to +2): 0; mean protection from cisplatin (shift in death) (%): 4.9; Outcome: inactive
